Laboratory results from patent publication US20200165257A1, “INHIBITORS OF PHOSPHOINOSITIDE 3-KINASE AND HISTONE DEACETYLASE FOR TREATMENT OF CANCER” (THE UNITED STATES OF AMERICA, AS REPRESENTED BY THE …, priority 2017, published 2020).
Some results were stated once for a whole list of compounds, not compound by compound.

Amino acid sequences for entries named in this document (tags omitted).
UniProt Q13547, whole entry, species assumed: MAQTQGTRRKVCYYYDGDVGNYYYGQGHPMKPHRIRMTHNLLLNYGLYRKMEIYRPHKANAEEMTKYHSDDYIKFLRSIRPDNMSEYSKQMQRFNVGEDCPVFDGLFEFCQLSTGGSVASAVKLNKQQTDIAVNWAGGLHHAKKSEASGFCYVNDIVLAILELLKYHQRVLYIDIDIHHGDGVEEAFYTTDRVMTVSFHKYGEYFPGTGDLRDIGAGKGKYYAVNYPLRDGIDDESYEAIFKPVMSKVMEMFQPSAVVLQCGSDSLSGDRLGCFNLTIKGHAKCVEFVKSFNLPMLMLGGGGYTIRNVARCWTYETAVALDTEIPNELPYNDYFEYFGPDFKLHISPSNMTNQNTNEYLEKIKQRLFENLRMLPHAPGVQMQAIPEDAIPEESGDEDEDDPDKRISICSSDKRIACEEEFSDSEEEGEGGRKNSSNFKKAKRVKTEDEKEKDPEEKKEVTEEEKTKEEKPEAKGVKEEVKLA
UniProt O15379, whole entry, species assumed: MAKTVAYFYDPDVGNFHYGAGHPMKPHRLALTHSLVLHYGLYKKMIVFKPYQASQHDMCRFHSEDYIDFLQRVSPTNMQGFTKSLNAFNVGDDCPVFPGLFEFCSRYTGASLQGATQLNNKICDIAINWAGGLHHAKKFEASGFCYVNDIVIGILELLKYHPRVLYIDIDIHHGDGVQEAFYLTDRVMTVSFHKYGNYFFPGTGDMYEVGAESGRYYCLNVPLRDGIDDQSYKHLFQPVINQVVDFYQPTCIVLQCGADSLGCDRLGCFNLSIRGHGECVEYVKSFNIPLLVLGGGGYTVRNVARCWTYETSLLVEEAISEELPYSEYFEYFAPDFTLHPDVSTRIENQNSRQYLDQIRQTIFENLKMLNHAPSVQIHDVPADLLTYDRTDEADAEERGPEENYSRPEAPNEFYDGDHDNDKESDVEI

How the values were obtained:
[1] = target: HDAC1 (Homo sapiens, UniProt Q13547); experiment: HDAC Fluorescent Activity Assay; format: biochemical
[2] = target: HDAC3 (Homo sapiens, UniProt O15379); experiment: HDAC Fluorescent Activity Assay; format: biochemical
[3] = target: T1, HDAC8 (Homo sapiens, UniProt Q9BY41); experiment: HDAC Fluorescent Activity Assay; format: biochemical
T1 sequence (Q9BY41 1-377): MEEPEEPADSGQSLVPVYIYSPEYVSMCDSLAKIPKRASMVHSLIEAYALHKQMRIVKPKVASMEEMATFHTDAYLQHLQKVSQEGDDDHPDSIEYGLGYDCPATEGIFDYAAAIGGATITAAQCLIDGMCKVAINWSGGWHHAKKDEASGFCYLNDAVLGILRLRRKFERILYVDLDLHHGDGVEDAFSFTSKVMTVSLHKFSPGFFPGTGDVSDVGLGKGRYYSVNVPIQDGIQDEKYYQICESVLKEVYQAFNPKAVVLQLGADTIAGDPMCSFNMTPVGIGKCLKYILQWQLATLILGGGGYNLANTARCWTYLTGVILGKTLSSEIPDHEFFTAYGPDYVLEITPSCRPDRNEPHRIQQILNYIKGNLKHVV

[4] = target: T2, HDAC10 (Homo sapiens, UniProt Q969S8); experiment: HDAC Fluorescent Activity Assay; format: biochemical
T2 sequence (Q969S8 1-669): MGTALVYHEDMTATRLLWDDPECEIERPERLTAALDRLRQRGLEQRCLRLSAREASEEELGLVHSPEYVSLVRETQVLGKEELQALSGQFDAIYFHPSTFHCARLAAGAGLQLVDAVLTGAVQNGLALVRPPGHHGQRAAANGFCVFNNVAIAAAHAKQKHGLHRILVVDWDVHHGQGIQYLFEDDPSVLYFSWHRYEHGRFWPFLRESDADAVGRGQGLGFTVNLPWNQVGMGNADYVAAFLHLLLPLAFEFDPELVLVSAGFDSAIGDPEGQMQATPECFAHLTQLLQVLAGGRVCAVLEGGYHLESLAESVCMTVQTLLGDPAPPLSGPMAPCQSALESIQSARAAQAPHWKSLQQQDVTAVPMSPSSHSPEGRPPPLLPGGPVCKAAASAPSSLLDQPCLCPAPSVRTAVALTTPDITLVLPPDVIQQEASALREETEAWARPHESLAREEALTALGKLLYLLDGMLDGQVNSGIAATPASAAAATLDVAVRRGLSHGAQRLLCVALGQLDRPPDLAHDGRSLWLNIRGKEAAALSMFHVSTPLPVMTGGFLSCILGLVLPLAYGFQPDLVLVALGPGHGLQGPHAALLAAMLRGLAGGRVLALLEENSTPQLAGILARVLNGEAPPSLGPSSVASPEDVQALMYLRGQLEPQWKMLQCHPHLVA

[5] = target: T3, HDAC11 (Homo sapiens, UniProt Q96DB2); experiment: HDAC Fluorescent Activity Assay; format: biochemical
T3 sequence (Q96DB2 1-347): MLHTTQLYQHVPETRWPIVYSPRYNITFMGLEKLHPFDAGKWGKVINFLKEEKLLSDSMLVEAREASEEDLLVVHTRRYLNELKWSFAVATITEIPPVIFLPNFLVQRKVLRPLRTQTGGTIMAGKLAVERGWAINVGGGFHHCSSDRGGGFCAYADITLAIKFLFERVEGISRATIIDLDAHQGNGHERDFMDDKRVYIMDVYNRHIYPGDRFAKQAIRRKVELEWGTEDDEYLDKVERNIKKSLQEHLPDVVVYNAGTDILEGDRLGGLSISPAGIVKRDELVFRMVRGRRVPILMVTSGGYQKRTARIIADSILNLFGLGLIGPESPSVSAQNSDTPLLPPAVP

[6] = system: Non-Small Cell Lung Cancer Cell Line HOP-92; conditions: single dose, 10 uM compound concentration
[7] = system: Colon Cancer Cell Line COLO-205; conditions: single dose, 10 uM compound concentration
[8] = system: Colon Cancer Cell Line HCT-116; conditions: single dose, 10 uM compound concentration
[9] = system: CNS Cancer Cell Line SNB-19; conditions: single dose, 10 uM compound concentration
[10] = system: CNS Cancer Cell Line U251; conditions: single dose, 10 uM compound concentration
[11] = system: Melanoma Cell Line MDA-MB-435; conditions: single dose, 10 uM compound concentration
[12] = system: Melanoma Cell Line SK-MEL-28; conditions: single dose, 10 uM compound concentration
[13] = system: Renal Cancer Cell Line 786-0; conditions: single dose, 10 uM compound concentration
[14] = system: Renal Cancer Cell Line CAKI-1; conditions: single dose, 10 uM compound concentration
[15] = system: Renal Cancer Cell Line SN12C; conditions: single dose, 10 uM compound concentration
[16] = system: Prostate Cancer Cell Line PC-3; conditions: single dose, 10 uM compound concentration
[17] = system: Breast Cancer Cell Line MCF7; conditions: single dose, 10 uM compound concentration
[18] = system: Breast Cancer Cell Line T-47D; conditions: single dose, 10 uM compound concentration

Cc1nc2cccc(NCc3ccc(C(=O)NO)cc3)c2c(=O)n1-c1ccccc1 [Compound LX, N-hydroxy-4-(((2-methyl-4-oxo-3-phenyl-3,4-dihydroquinazolin-5-yl)amino)methyl)benzamide]
HDAC6 Selectivity Over HDAC1 [1]: > 10 fold | HDAC6 Selectivity Over HDAC3 [2]: > 10 fold | HDAC6 Selectivity Over HDAC8 [3]: > 10 fold | HDAC6 Selectivity Over HDAC10 [4]: > 10 fold | HDAC6 Selectivity Over HDAC11 [5]: > 10 fold | inhibition of proliferation [6]: > 50% | inhibition of proliferation [7]: > 50% | inhibition of proliferation [8]: > 50% | inhibition of proliferation [9]: > 50% | inhibition of proliferation [10]: > 50% | inhibition of proliferation [11]: > 50% | inhibition of proliferation [12]: > 50% | inhibition of proliferation [13]: 25%-50% | inhibition of proliferation [14]: > 50% | inhibition of proliferation [15]: 25%-50% | inhibition of proliferation [16]: > 50% | inhibition of proliferation [17]: 25%-50% | inhibition of proliferation [18]: > 50%
